We go through 2 compounds from paper PMC3904413, “Allosteric modulation of GABAA receptors by extracellular ATP” (Molecular Brain, 2014).

The subject of this data set is T1, GABAARs (native, cultured hippocampal neurons).
T1 construct: gene Gabra1; native receptors of undefined subunit composition in cultured embryonic (E18) hippocampal neurons
The experiment in a line: whole-cell voltage clamp, potentiation of GABA currents. The note with it: GABA 100 μM by pressure ejection, allosteric potentiator. The format is cell-based, Rattus norvegicus.

Regarding `Nc1ncnc2c1ncn2[C@@H]1O[C@H](COP(=O)(O)OP(=O)(O)NP(=O)(O)O)[C@@H](O)[C@H]1O` [AMP-PNP], the “GABA current, % of control at 2 mM” value (AMP-PNP 2 mM in bath) is 134.2 ± 11.4%.
In the case of `Nc1ncnc2c1ncn2[C@@H]1O[C@H](COP(=O)(O)OP(=O)(O)O)[C@@H](O)[C@H]1O` [ADP], the “GABA current, % of control at 2 mM” value (ADP 2 mM in bath) amounted to 140 ± 14.7%.
